The effect of the compound repeats well; differences between the knockouts mostly do not.
Test system: MDA-MB-231
Assay: relative cell number vs DMSO control (72 h) (% of DMSO); higher = less growth inhibition (more cells)
Method: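 QMAP-Seq: a pool of 5 breast cancer cell lines (ZR-75-1, SKBR3, HCC-38, MDA-MB-231, BT-20), each carrying 12 doxycycline-inducible Cas9 sgRNA perturbations (11 knockouts plus non-targeting sgNT), was treated with compounds for 72 h at four 10-fold doses (10 nM-10 uM or 1 nM-1 uM range). Barcodes were amplified and sequenced, and cell number was interpolated from 293T spike-in standard curves. The result is expressed as % of the median of DMSO wells. Two biological replicates.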

Cn1nnc2c(C(N)=O)ncn2c1=O [Temozolomide]
Settings | relative cell number
sgRNA knockout: sgATF3, 10 nM | 112
sgRNA knockout: sgATF3, 100 nM | 100
sgRNA knockout: sgATF3, 1000 nM | 112
sgRNA knockout: sgATF3, 10000 nM | 96.3
sgRNA knockout: sgATF4, 10 nM | 155
sgRNA knockout: sgATF4, 100 nM | 115
sgRNA knockout: sgATF4, 1000 nM | 111
sgRNA knockout: sgATF4, 10000 nM | 122
sgRNA knockout: sgATF6, 10 nM | 108
sgRNA knockout: sgATF6, 100 nM | 119
sgRNA knockout: sgATF6, 1000 nM | 106
sgRNA knockout: sgATF6, 10000 nM | 82.6
sgRNA knockout: sgATG7, 10 nM | 122
sgRNA knockout: sgATG7, 100 nM | 91.8
sgRNA knockout: sgATG7, 1000 nM | 124
sgRNA knockout: sgATG7, 10000 nM | 83.2
sgRNA knockout: sgERN1, 10 nM | 111
sgRNA knockout: sgERN1, 100 nM | 106
sgRNA knockout: sgERN1, 1000 nM | 122
sgRNA knockout: sgERN1, 10000 nM | 96.6
sgRNA knockout: sgHSF1, 10 nM | 104
sgRNA knockout: sgHSF1, 100 nM | 93.6
sgRNA knockout: sgHSF1, 1000 nM | 101
sgRNA knockout: sgHSF1, 10000 nM | 73.5
sgRNA knockout: sgHSF2, 10 nM | 136
sgRNA knockout: sgHSF2, 100 nM | 125
sgRNA knockout: sgHSF2, 1000 nM | 112
sgRNA knockout: sgHSF2, 10000 nM | 71.8
sgRNA knockout: sgKEAP1, 10 nM | 140.8
sgRNA knockout: sgKEAP1, 100 nM | 107
sgRNA knockout: sgKEAP1, 1000 nM | 93.4
sgRNA knockout: sgKEAP1, 10000 nM | 75.7
sgRNA knockout: sgNFE2L2, 10 nM | 126
sgRNA knockout: sgNFE2L2, 100 nM | 103
sgRNA knockout: sgNFE2L2, 1000 nM | 111
sgRNA knockout: sgNFE2L2, 10000 nM | 91.2
sgRNA knockout: sgSLC35F2, 10 nM | 97
sgRNA knockout: sgSLC35F2, 100 nM | 96.6
sgRNA knockout: sgSLC35F2, 1000 nM | 92.4
sgRNA knockout: sgSLC35F2, 10000 nM | 85.9
sgRNA knockout: sgXBP1, 10 nM | 116
sgRNA knockout: sgXBP1, 100 nM | 101
sgRNA knockout: sgXBP1, 1000 nM | 125.1
sgRNA knockout: sgXBP1, 10000 nM | 77.2

Cc1cc2c(C(C)C)c(O)c(O)c(C=O)c2c(O)c1-c1c(C)cc2c(C(C)C)c(O)c(O)c(C=O)c2c1O [Gossypol]
Settings | relative cell number
sgRNA knockout: sgATF3, 10 nM | 89.9
sgRNA knockout: sgATF3, 100 nM | 85.2
sgRNA knockout: sgATF3, 1000 nM | 109
sgRNA knockout: sgATF3, 10000 nM | 25.7
sgRNA knockout: sgATF4, 10 nM | 107
sgRNA knockout: sgATF4, 100 nM | 103
sgRNA knockout: sgATF4, 1000 nM | 101
sgRNA knockout: sgATF4, 10000 nM | 23.5
sgRNA knockout: sgATF6, 10 nM | 105
sgRNA knockout: sgATF6, 100 nM | 99.9
sgRNA knockout: sgATF6, 1000 nM | 123
sgRNA knockout: sgATF6, 10000 nM | 25.7
sgRNA knockout: sgATG7, 10 nM | 92.2
sgRNA knockout: sgATG7, 100 nM | 89.6
sgRNA knockout: sgATG7, 1000 nM | 100.9
sgRNA knockout: sgATG7, 10000 nM | 22.9
sgRNA knockout: sgERN1, 10 nM | 85.4
sgRNA knockout: sgERN1, 100 nM | 141
sgRNA knockout: sgERN1, 1000 nM | 106
sgRNA knockout: sgERN1, 10000 nM | 26.1
sgRNA knockout: sgHSF1, 10 nM | 99.3
sgRNA knockout: sgHSF1, 100 nM | 82.8
sgRNA knockout: sgHSF1, 1000 nM | 95.9
sgRNA knockout: sgHSF1, 10000 nM | 24
sgRNA knockout: sgHSF2, 10 nM | 112
sgRNA knockout: sgHSF2, 100 nM | 97.6
sgRNA knockout: sgHSF2, 1000 nM | 106
sgRNA knockout: sgHSF2, 10000 nM | 25.6
sgRNA knockout: sgKEAP1, 10 nM | 102
sgRNA knockout: sgKEAP1, 100 nM | 135
sgRNA knockout: sgKEAP1, 1000 nM | 82.4
sgRNA knockout: sgKEAP1, 10000 nM | 25.35
sgRNA knockout: sgNFE2L2, 10 nM | 69.9
sgRNA knockout: sgNFE2L2, 100 nM | 89.6
sgRNA knockout: sgNFE2L2, 1000 nM | 93.9
sgRNA knockout: sgNFE2L2, 10000 nM | 21.9
sgRNA knockout: sgSLC35F2, 10 nM | 112
sgRNA knockout: sgSLC35F2, 100 nM | 109
sgRNA knockout: sgSLC35F2, 1000 nM | 105
sgRNA knockout: sgSLC35F2, 10000 nM | 28.7
sgRNA knockout: sgXBP1, 10 nM | 93.5
sgRNA knockout: sgXBP1, 100 nM | 92.8
sgRNA knockout: sgXBP1, 1000 nM | 103
sgRNA knockout: sgXBP1, 10000 nM | 26.3

CN1CCN(CCCN2c3ccccc3Sc3ccc(C(F)(F)F)cc32)CC1 [Trifluoperazine]
Settings | relative cell number
sgRNA knockout: sgATF3, 10 nM | 95.32
sgRNA knockout: sgATF3, 100 nM | 127
sgRNA knockout: sgATF3, 1000 nM | 91.6
sgRNA knockout: sgATF3, 10000 nM | 73
sgRNA knockout: sgATF4, 10 nM | 75.4
sgRNA knockout: sgATF4, 100 nM | 111
sgRNA knockout: sgATF4, 1000 nM | 94.56
sgRNA knockout: sgATF4, 10000 nM | 64.1
sgRNA knockout: sgATF6, 10 nM | 75.4
sgRNA knockout: sgATF6, 100 nM | 116
sgRNA knockout: sgATF6, 1000 nM | 101
sgRNA knockout: sgATF6, 10000 nM | 75
sgRNA knockout: sgATG7, 10 nM | 88.5
sgRNA knockout: sgATG7, 100 nM | 94.2
sgRNA knockout: sgATG7, 1000 nM | 98.8
sgRNA knockout: sgATG7, 10000 nM | 67.2
sgRNA knockout: sgERN1, 10 nM | 101
sgRNA knockout: sgERN1, 100 nM | 98.5
sgRNA knockout: sgERN1, 1000 nM | 85.9
sgRNA knockout: sgERN1, 10000 nM | 74.1
sgRNA knockout: sgHSF1, 10 nM | 93.5
sgRNA knockout: sgHSF1, 100 nM | 99.8
sgRNA knockout: sgHSF1, 1000 nM | 81.3
sgRNA knockout: sgHSF1, 10000 nM | 58.2
sgRNA knockout: sgHSF2, 10 nM | 100
sgRNA knockout: sgHSF2, 100 nM | 99.3
sgRNA knockout: sgHSF2, 1000 nM | 76.5
sgRNA knockout: sgHSF2, 10000 nM | 67.8
sgRNA knockout: sgKEAP1, 10 nM | 92.8
sgRNA knockout: sgKEAP1, 100 nM | 109
sgRNA knockout: sgKEAP1, 1000 nM | 113
sgRNA knockout: sgKEAP1, 10000 nM | 56.6
sgRNA knockout: sgNFE2L2, 10 nM | 88.3
sgRNA knockout: sgNFE2L2, 100 nM | 85.3
sgRNA knockout: sgNFE2L2, 1000 nM | 87.4
sgRNA knockout: sgNFE2L2, 10000 nM | 71.2
sgRNA knockout: sgSLC35F2, 10 nM | 90.4
sgRNA knockout: sgSLC35F2, 100 nM | 121
sgRNA knockout: sgSLC35F2, 1000 nM | 58.5
sgRNA knockout: sgSLC35F2, 10000 nM | 72.9
sgRNA knockout: sgXBP1, 10 nM | 91.2
sgRNA knockout: sgXBP1, 100 nM | 96.7
sgRNA knockout: sgXBP1, 1000 nM | 94.6
sgRNA knockout: sgXBP1, 10000 nM | 64.5

From the supplement of paper PMC7661543
